Experimental data taken from article PMC6754381.
No constants are given. Whether binding was seen depends on the method and setting. Binding seen in cells or lysates may run through a third protein. Some binding calls cover weakened binding; strength is not graded here.

The chains behind the UniProt entries cited, without tags or fusion partners. Residues count along the entry.
UniProt P09055, residues 21-798: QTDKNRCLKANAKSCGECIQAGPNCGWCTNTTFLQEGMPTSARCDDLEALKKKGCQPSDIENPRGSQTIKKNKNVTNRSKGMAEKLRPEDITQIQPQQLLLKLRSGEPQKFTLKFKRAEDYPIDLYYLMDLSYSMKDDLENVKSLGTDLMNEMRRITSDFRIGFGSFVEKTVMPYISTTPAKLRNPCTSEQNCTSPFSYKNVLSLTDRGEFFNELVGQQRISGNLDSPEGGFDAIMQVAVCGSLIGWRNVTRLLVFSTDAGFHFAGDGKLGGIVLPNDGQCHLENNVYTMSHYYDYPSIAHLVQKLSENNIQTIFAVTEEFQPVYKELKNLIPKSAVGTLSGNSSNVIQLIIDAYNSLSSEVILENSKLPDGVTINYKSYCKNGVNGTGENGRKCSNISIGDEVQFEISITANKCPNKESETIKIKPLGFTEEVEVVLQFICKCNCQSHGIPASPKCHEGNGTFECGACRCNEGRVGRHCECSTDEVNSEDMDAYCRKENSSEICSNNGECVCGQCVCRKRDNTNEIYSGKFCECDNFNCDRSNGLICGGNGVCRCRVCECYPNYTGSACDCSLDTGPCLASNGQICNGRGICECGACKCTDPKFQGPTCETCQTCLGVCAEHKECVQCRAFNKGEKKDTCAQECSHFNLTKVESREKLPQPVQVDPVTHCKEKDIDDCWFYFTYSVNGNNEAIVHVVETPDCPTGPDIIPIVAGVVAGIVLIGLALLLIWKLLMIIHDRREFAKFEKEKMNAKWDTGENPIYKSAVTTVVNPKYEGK

Target: T1, Dab2, endogenous in mouse neutrophils (mouse (endogenous in bone marrow-derived neutrophils)) (UniProt P98078)
T1 sequence: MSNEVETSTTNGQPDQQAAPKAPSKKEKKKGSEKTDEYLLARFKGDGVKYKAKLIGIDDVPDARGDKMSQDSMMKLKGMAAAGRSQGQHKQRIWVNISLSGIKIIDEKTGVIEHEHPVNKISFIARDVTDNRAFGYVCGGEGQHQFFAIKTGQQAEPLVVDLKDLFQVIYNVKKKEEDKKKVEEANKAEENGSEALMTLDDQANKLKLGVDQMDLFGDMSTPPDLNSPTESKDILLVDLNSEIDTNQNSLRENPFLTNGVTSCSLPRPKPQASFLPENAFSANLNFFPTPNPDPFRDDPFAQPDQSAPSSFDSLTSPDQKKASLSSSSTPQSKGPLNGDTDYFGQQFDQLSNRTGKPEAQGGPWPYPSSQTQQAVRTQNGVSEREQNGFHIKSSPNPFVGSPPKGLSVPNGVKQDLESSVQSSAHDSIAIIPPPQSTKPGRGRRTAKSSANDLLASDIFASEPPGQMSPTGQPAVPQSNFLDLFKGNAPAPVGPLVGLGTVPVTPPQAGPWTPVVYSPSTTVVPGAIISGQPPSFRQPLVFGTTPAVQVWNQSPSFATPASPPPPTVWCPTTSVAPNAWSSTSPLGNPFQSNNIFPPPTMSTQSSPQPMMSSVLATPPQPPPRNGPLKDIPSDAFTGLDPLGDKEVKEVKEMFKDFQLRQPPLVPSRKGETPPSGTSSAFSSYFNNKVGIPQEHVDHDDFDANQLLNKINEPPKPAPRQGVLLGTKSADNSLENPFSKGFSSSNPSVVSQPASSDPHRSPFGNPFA
Assay: co-IP; lysates of cultured mouse bone marrow-derived neutrophils (untreated, control conditioned medium, conditioned medium of IFNλ-overexpressing RPE cells 1:1 for 6 h, or recombinant IFNλ 200 U/mL for 2 h); 70 ug lysate precipitated with 10 ug immobilised LCN-2 or Dab2 antibody at 4 °C overnight (Pierce Co-Immunoprecipitation Kit); western blot; normal rabbit IgG as negative control

Question: “Integrin β1, endogenous in mouse neutrophils (from UniProt P09055 21-798) (receptor)” was tested. Which binding did it give?
Answer: binds
